Assay results: doi:10.1101/2024.03.08.584184
For at least one entry, the source does not settle the construct or the ends of the probe.

Chains of the proteins cited; added tags and fusions are not shown.
UniProt Q8N884, whole entry: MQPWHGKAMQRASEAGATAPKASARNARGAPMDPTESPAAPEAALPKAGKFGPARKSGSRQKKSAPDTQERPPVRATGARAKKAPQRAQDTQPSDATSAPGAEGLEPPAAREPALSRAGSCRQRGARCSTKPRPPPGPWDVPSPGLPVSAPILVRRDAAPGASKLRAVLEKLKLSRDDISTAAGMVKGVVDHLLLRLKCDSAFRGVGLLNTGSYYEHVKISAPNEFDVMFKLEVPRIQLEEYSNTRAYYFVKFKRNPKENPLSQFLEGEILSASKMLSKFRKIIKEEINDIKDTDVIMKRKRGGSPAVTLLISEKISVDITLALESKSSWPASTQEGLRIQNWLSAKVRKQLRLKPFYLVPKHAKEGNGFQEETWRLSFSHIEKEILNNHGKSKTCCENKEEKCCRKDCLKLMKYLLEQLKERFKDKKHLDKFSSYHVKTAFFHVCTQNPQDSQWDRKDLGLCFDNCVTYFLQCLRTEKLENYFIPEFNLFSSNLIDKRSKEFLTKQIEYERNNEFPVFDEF

Target: cGAS (Homo sapiens) (UniProt Q8N884)
Assay: EMSA
Conditions: binds at lower cGAS concentration than 30 bp DNA

Sequence: TTAATAACATCGAGCATTAGGGAGCCGCTAGTTCGATTGTATTAATAACAAGGACTGTCCCTATTAACCTTGCCGGATCTGAAGCGACACCGTGTTACTTGATGCCACAAGAGTAACACGAACTTAATTATCGCCGTCGGGAGCGTTGCCTGTCGTCTTCTAGCCAATGTATACCATCAAGGTGAACCGCTTAGTTAGGA (double strand) [200bp Oligo (same sequence as Scramble 1)]
- binding result: binds
